Laboratory results taken from paper PMC5837800.
Results are given in words; binding and its absence hold for the method and conditions named.

Target: recombinant P. falciparum phosphoethanolamine-N-methyltransferase (P. falciparum) (UniProt Q8IDQ9)
Experiment: SEC; 4 mg purified protein on HiPrep 16/60 Sephacryl S-200 (120 ml), 50 mM NaH2PO4, 150 mM NaCl, pH 8.0, 0.5 ml/min, calibrated column; both purified

binding: no binding
B1: recombinant P. falciparum phosphoethanolamine-N-methyltransferase (enzyme, UniProt Q8IDQ9 1-266)
chain: MTLIENLNSDKTFLENNQYTDEGVKVYEFIFGENYISSGGLEATKKILSDIELNENSKVLDIGSGLGGGCMYINEKYGAHTHGIDICSNIVNMANERVSGNNKIIFEANDILTKEFPENNFDLIYSRDAILHLSLENKNKLFQKCYKWLKPTGTLLITDYCATEKENWDDEFKEYVKQRKYTLITVEEYADILTACNFKNVVSKDLSDYWNQLLEVEHKYLHENKEEFLKLFSEKKFISLDDGWSRKIKDSKRKMQRWGYFKATKN
